{"source": "PubChem BioAssay AID1259254, NCATS, 2017", "assay": "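Gene knock-downs that lead to re-replication, shown by excess G2 DNA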 (primary screen)", "cells": "human HCT116 colorectal cancer cells", "reagent": "single siRNA against human genes", "duration": "3 days", "measurement": "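Nuclei stained with Hoechst and imaged; cell-cycle phase assigned by DNA content; G2 share scaled per plate, non-targeting siRNA 0%, GMNN siRNA 100%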", "direction": "G2 robust z-score and G2 cells, % of GMNN control: higher = more G2 cells, more excess DNA replication", "rule for the call": "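Active siRNAs have a G2 robust z of 5 or more median absolute deviations over the median, which in these data means about 38% or higher of GMNN control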", "note": "The whole screen tested about 59,000 reagents; this is a part drawn at random. Over the whole deposit, about 1,550 (2.6%) got an active call. 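G2 share is only a proxy for re-replication; each gene was hit by three separate siRNAs, and active genes were retested.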 Reagents against one gene are numbered here. Further read-outs or replicates are left out here. The record does not give: the amount of reagent."}
{"target gene": "SERPINB13", "reagent": 1, "G2 robust z-score": -0.384, "G2 cells, % of GMNN control": 0.269, "activity call": "inactive"}
{"target gene": "SERPINB13", "reagent": 2, "G2 robust z-score": -1.03, "G2 cells, % of GMNN control": -4.27, "activity call": "inactive"}
{"target gene": "SERPINB13", "reagent": 3, "G2 robust z-score": 0.419, "G2 cells, % of GMNN control": 5.92, "activity call": "inactive"}
{"target gene": "CCDC6", "reagent": 1, "G2 robust z-score": -0.0111, "G2 cells, % of GMNN control": 2.89, "activity call": "inactive"}
{"target gene": "CCDC6", "reagent": 2, "G2 robust z-score": 0.0687, "G2 cells, % of GMNN control": 3.45, "activity call": "inactive"}
{"target gene": "CCDC6", "reagent": 3, "G2 robust z-score": 0.876, "G2 cells, % of GMNN control": 9.13, "activity call": "inactive"}

Sorted by “G2 cells, % of GMNN control” (ascending): 2 of the entries above
{"target gene": "SERPINB13", "reagent": 2, "G2 robust z-score": -1.03, "G2 cells, % of GMNN control": -4.27, "activity call": "inactive"}
{"target gene": "SERPINB13", "reagent": 1, "G2 robust z-score": -0.384, "G2 cells, % of GMNN control": 0.269, "activity call": "inactive"}

Next records follow.
{"target gene": "CSRP1", "reagent": 1, "G2 robust z-score": -0.25, "G2 cells, % of GMNN control": 1.21, "activity call": "inactive"}
{"target gene": "CSRP1", "reagent": 2, "G2 robust z-score": 0.181, "G2 cells, % of GMNN control": 4.24, "activity call": "inactive"}
{"target gene": "CSRP1", "reagent": 3, "G2 robust z-score": 1.83, "G2 cells, % of GMNN control": 15.9, "activity call": "inactive"}
{"target gene": "ZNF304", "reagent": 1, "G2 robust z-score": 0.0888, "G2 cells, % of GMNN control": 3.59, "activity call": "inactive"}
{"target gene": "ZNF304", "reagent": 2, "G2 robust z-score": -0.586, "G2 cells, % of GMNN control": -1.15, "activity call": "inactive"}
{"target gene": "ZNF304", "reagent": 3, "G2 robust z-score": 0.0241, "G2 cells, % of GMNN control": 3.14, "activity call": "inactive"}
